Data reported in PubChem BioAssay AID504467 (National Center for Advancing Translational Sciences (NCATS), 2011).
Hit rate of the full screen: of about 330,000 compounds, about 7,700 (2.3%) were called active. This list was built around the results that the source calls inconclusive (neither active nor inactive); the mix of calls is not that of the screen. Calls follow the shape of the dose curve; as a rule, active = well fitted inhibition curve with a large enough effect; inconclusive = small, poorly fitted or top-dose-only effect, or effect the other way; inactive = flat fitted curve, though single readings scatter. Potencies beside an inconclusive call are fits to weak or partial responses and may not hold up.
Potency is read from the fitted curve at half-maximal effect.

Experiment: qHTS screen for small molecules that inhibit ELG1-dependent DNA repair in human embryonic kidney (HEK293T) cells expressing luciferase-tagged ELG1; also: nearly all actives have a fitted effect of over 55% in size
Conditions: HEK293T ELG1-luciferase reporter, luminescence, 16 h, DNA damage induced by 5-fluorouridine; series mostly up to 46.1 µM
Summary of the method: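 HEK293T cells expressing luciferase-tagged ELG1 (2,000/well) received 5-Fluorouridine plus compound or DMSO for 16 hr at 37 °C. Luciferase was read by ONE-Glo luminescence after 30 min at room temperature.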
With `O=C(c1ccco1)N(Cc1cc2ccccc2[nH]c1=O)C1CCCCC1` the Potency was inconclusive: 29.1 µM [activator, single point]. For `CCOC(=O)/C(C#N)=C/c1ccc(-c2ccsc2C(=O)OC)o1`, the Potency was inconclusive: 5.62 µM [activator, partial curve]. For `C=CCC1C=C(C)CC(CC=C)N1` (centres undefined), the Potency was “inactive”. In the case of `O=C(CCCNC(=O)c1ccc(Cl)cc1)Nc1cccc(S(=O)(=O)N2CCCCC2)c1`, the Potency is reported as inconclusive: 14.6 µM [inhibitor, partial curve, poor fit]. For `COc1cc(CN2CCN(C(=O)c3cccc4ccccc34)CC2)cc(OC)c1OC`, the Potency was inconclusive: 29.1 µM [inhibitor, single point]. In the case of `CCOc1cccc2sc(N(CCCN(C)C)C(=O)c3ccc(S(=O)(=O)N(C)c4ccccc4)cc3)nc12`, the Potency is reported as “inactive”. With `c1ccc(-c2nc(NCc3cccs3)c3ccccc3n2)cc1` the Potency was “inactive”. In the case of `Cc1cccc(OCC(=O)Nc2cc(Cl)ccc2-n2cncn2)c1C`, the Potency is reported as inconclusive: 16.4 µM [inhibitor, partial curve, poor fit]. For `CCn1cc(CN2CCc3c([nH]c4ccccc34)C2c2cccc(OC)c2)c(C)n1` (centres undefined), the Potency was inconclusive: 23.1 µM [inhibitor, single point]. With `CC(NC(=O)c1ccc(C(=O)c2ccccc2)cc1)c1ccc(S(N)(=O)=O)cc1` (centres undefined) the Potency was “inactive”. In the case of `N#Cc1nc(COc2ccc(Br)cc2)oc1N1CCCC1`, the Potency is reported as inconclusive: 23.1 µM [activator, partial curve, poor fit]. In the case of `CCOC(=O)/C(C#N)=C1\CCCN1CC(N)=S`, the Potency is reported as “inactive”. For `CCCOc1ccc(N2C(=O)CC(SC(=N)N3N=C(c4ccccc4)CC3c3ccccc3)C2=O)cc1` (centres undefined), the Potency was inconclusive: 23.1 µM [inhibitor, single point]. For `CCOC(=O)C/C(C)=N/NC(=O)c1cccs1`, the Potency was inconclusive: 20.6 µM [activator, single point]. In the case of `COc1ccc(CNC(=O)c2cccc(S(=O)(=O)N3CCCCC3)c2)cc1OC`, the Potency is reported as inconclusive: 1.3 µM [inhibitor, single point]. In the case of `COc1cccc(C(=O)/C=C2\NCCc3cc(OC)c(OC)cc32)c1`, the Potency is reported as inconclusive: 32.6 µM [inhibitor, single point]. For `Cc1cccc(NC(=O)c2cc3n(n2)C(C(F)(F)F)CC(c2ccc4c(c2)OCO4)N3)c1` (centres undefined), the Potency was inconclusive: 16.4 µM [inhibitor, single point]. In the case of `O=C(NCCCN1CCOCC1)c1cc2c(s1)CCCC2`, the Potency is reported as inconclusive: 5.17 µM [activator, single point]. In the case of `CC(C)C(=O)Nc1nnc(Cc2ccccc2)s1`, the Potency is reported as inconclusive: 29.1 µM [activator, single point]. For `Cc1ccc(NC(=O)CN(c2ccc(Cl)cc2)S(=O)(=O)c2cc([N+](=O)[O-])ccc2Cl)cc1`, the Potency was “inactive”. For `CCN(CC)CCCn1c2c(c(SCC(=O)Nc3nc4ccccc4s3)nc1=O)CCC2`, the Potency was “inactive”. For `COc1ccc(/C=N/Nc2cc(N3CCCC3)nc(N3CCCC3)n2)cc1`, the Potency was inconclusive: 20.6 µM [inhibitor, single point]. With `COc1ccc(-n2nc([N+](=O)[O-])c(=NCCc3ccc(C)cc3)n2O)cc1` the Potency was inconclusive: 4.61 µM [activator, partial curve, poor fit]. With `CC1CCN(c2oc(-c3ccc(F)cc3)nc2C#N)CC1` the Potency was inconclusive: 11.6 µM [activator, partial curve]. With `COc1ccc(-c2nnc3n(CCc4ccccc4)c(=O)c4ccccc4n23)c(OC)c1` the Potency was active: 8.2 µM. With `COc1ccc(NC(=O)c2cc3n(n2)C(C(F)(F)F)CC(c2ccc4c(c2)OCO4)N3)cc1OC` (centres undefined) the Potency was inconclusive: 0.92 µM [activator, partial curve]. In the case of `COc1ccc(-n2cnc3cc(NCc4ccccn4)ccc32)cc1`, the Potency is reported as inconclusive: 11.2 µM [activator, partial curve, poor fit]. With `CCOC(=O)c1ccc(NC(=O)CSc2nc(C)cc(=O)[nH]2)cc1` the Potency was “inactive”. With `CSc1ccc(/C=N/NC(=O)c2sccc2C)cc1` the Potency was inconclusive: 1.84 µM [activator, full curve]. For `CN(C(=O)CSc1nnc(-c2ccc(F)cc2)c2ccccc12)C1CCS(=O)(=O)C1` (centres undefined), the Potency was “inactive”. With `S=C(NCCc1ccccc1)NC1CCCCCC1` the Potency was inconclusive: 20.6 µM [activator, partial curve]. For `CNS(=O)(=O)c1cccc(C(=O)Nc2cccc(Cl)c2)c1`, the Potency was inconclusive: 16.4 µM [activator, partial curve, poor fit]. With `CN(C(=O)COC(=O)c1ccc(Cl)nc1)c1c(N)n(Cc2ccccc2)c(=O)[nH]c1=O` the Potency was inconclusive: 16.4 µM [activator, partial curve, poor fit]. In the case of `CC1(C)NC(=O)N(CC(O)COc2ccc(-c3ccc(C#N)cc3)cc2)C1=O` (centres undefined), the Potency is reported as “inactive”. With `Cc1cccc(N2CCN(C(=O)c3cn4ccccc4n3)CC2C)c1` (centres undefined) the Potency was inconclusive: 23.1 µM [inhibitor, single point]. For `COc1ccc2c(c1)CCc1cn3nc(C)cc3nc1-2`, the Potency was inconclusive: 29.1 µM [inhibitor, single point]. For `CCC(C)(C)C1CCc2[nH]nc(C(=O)NCc3ccc(OC)cc3)c2C1` (centres undefined), the Potency was inconclusive: 28.2 µM [inhibitor, single point]. For `C=CCn1c(=N)n(CC(=O)c2cccc([N+](=O)[O-])c2)c2ccccc21`, the Potency was “inactive”. With `COc1ccc(C(=O)CSc2nnc(NC(=O)C3CC(=O)N(c4ccccc4)C3)s2)cc1` (centres undefined) the Potency was “inactive”. With `COc1ccc(C2=CSC3=NCCN23)cc1OC` the Potency was inconclusive: 12.6 µM [inhibitor, single point]. For `Cc1ccc(-c2noc(CCC(=O)NC3CCCC3)n2)cc1`, the Potency was “inactive”. For `COc1cc(NC(=O)CSCc2ccc(Cl)cc2)c(C(=O)O)cc1OC`, the Potency was “inactive”. With `Cc1ccc(C2=Nc3cccnc3C(c3ccccc3)=NN2)cc1` the Potency was inconclusive: 13 µM [activator, partial curve]. For `CCOC(=O)c1cnc2c(OC)cccc2c1N1CCN(c2ccc(OC)cc2)CC1`, the Potency was inconclusive: 10 µM [inhibitor, partial curve, poor fit].
